Results reported in paper doi:10.1101/2024.01.12.575466.
No constants are given. Whether binding was seen depends on the method and setting. Binding calls can cover weak binding; strength is not graded here.

Chains of the proteins cited; added tags and fusions are not shown. Lines headed by an entry give the natural chain unless they say otherwise; changes in a name come on top.
UniProt P19838: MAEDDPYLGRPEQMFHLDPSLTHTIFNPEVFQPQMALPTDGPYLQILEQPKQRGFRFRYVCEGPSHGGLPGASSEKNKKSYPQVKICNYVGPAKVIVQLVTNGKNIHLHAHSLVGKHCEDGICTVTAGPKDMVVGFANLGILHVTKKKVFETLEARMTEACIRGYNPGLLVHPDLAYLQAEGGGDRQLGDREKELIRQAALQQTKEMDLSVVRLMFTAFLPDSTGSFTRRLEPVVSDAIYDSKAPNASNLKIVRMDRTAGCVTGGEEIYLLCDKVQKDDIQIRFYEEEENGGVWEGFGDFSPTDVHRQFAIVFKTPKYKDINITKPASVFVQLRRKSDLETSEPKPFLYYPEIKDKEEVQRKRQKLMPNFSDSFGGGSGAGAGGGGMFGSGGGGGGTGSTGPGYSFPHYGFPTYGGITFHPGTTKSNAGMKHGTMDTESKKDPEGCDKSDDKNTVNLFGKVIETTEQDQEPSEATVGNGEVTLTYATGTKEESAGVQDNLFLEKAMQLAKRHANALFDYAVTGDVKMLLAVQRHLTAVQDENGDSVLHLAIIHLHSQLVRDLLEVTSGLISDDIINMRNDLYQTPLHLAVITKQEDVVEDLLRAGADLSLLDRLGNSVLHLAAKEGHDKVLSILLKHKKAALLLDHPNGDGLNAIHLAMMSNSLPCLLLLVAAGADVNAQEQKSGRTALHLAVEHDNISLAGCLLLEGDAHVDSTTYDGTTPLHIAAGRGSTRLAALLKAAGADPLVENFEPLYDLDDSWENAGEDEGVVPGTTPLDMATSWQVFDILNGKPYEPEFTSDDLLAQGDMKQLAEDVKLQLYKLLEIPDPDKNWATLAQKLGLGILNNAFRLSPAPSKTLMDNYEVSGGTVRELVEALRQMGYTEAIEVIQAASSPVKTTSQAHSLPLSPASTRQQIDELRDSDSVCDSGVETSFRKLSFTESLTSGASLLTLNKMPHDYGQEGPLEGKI
UniProt Q96P20: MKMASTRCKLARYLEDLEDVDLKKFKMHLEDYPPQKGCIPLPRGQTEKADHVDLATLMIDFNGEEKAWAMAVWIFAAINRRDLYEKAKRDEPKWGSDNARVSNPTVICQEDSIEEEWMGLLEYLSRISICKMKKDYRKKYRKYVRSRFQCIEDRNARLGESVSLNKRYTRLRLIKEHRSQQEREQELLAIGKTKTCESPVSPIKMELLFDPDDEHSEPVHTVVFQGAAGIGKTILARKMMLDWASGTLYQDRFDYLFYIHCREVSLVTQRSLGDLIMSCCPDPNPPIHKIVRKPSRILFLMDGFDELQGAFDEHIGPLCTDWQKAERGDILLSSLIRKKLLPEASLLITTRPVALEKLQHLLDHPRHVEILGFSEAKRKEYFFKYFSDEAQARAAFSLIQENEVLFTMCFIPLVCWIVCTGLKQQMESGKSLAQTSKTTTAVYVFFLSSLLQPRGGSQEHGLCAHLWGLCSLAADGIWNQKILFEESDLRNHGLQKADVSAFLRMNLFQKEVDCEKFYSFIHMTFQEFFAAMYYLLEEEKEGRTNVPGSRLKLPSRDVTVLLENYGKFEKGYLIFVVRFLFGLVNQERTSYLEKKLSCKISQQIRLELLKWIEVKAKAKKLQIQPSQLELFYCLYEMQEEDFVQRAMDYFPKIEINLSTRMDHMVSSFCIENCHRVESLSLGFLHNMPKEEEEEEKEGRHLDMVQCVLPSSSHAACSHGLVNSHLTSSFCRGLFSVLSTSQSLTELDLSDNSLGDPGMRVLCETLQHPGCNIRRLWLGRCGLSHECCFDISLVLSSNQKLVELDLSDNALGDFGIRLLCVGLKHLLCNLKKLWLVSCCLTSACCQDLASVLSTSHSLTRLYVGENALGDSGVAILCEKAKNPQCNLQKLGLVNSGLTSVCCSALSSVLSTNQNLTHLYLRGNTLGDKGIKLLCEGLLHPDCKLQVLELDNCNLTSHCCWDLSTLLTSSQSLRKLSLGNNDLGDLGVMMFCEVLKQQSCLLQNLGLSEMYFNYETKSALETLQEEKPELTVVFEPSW

Biological target: GST-NF-κB protein (UniProt P19838)
Assay: pull-down

- binding: binds
Substance: His-NLRP3 protein (from UniProt Q96P20 1-1036)
